# The list shows only some results of the screen, not a fair sample: it gathers tests that were run many times, whatever their T/C, doses with no T/C, and many T/C values between a quarter and a half above the control. Other doses and runs of a compound stand elsewhere. T/C: endpoint of the treated group in % of that of the vehicle group. Some entries give survivors of the animals treated and no T/C: the source holds a T/C of zero for them, seemingly a mark for toxic or unscored doses. Some doses without a T/C left all or most animals alive at the check, yet need not have been tolerated: survival well below the control is almost never listed, so the zero probably covers shortened survival too. Counts of survivors are from the toxicity check (mostly the fifth day) where no day follows; animals may have died later. Schedules are NCI's codes, taken here to give the interval after Q, in days (D) or hours (H), and the number of doses after X. Some doses were run more than once; the values are given in rising order. For survival time, the PubChem record calls one and a half times the control and up active, and a quarter to a half above the control has no call in these data; cut-offs in other NCI protocols can differ. Some T/C values carry the count of animals alive at the toxicity check (mostly the fifth day); where none is given, no animal had died by that day.
# Test system: CD2F1 mice, L1210 leukemia ip, survival T/C
# Test: NCI In Vivo Anticancer Drug Screen. Data for tumor model L1210 Leukemia (intraperitoneal) in CD2F1 (CDF1) mice
# Details: higher T/C = longer survival
# In short: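 Each value reflects a quotient of treated over vehicle control outcomes in mice with a transplanted tumor.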
# [1] = T/C endpoint: mean survival time, dose: 25.0 mg/kg/injection, schedule: Q01DX009 (ip), vehicle: saline
# [2] = T/C endpoint: mean survival time, dose: 50.0 mg/kg/injection, schedule: Q01DX009 (ip), vehicle: saline
# [3] = T/C endpoint: mean survival time, dose: 100.0 mg/kg/injection, schedule: Q01DX009 (ip), vehicle: saline with Tween-80
# [4] = T/C endpoint: mean survival time, dose: 100.0 mg/kg/injection, schedule: Q04DX002 (ip), vehicle: saline with Tween-80
# [5] = T/C endpoint: mean survival time, dose: 200.0 mg/kg/injection, schedule: Q01DX001 (ip), vehicle: saline
# [6] = T/C endpoint: mean survival time, dose: 400.0 mg/kg/injection, schedule: Q01DX001 (ip), vehicle: saline
# [7] = T/C endpoint: mean survival time, dose: 200.0 mg/kg/injection, schedule: Q04DX002 (ip), vehicle: saline with Tween-80
structure (smiles),measurement,setting,value
N=[N+]=CC(=O)OCC(N)C(=O)O (stereo not drawn),T/C,"T/C endpoint: mean survival time, dose: 0.5 mg/kg/injection, schedule: Q03HX024 (ip), vehicle: saline",136 and 139 % of control
same,T/C,"T/C endpoint: mean survival time, dose: 1.0 mg/kg/injection, schedule: Q03HX024 (ip), vehicle: saline",129 and 141 % of control
same,T/C,"T/C endpoint: mean survival time, dose: 5.0 mg/kg/injection, schedule: Q01DX009 (ip), vehicle: saline",144 % of control
same,T/C,"T/C endpoint: mean survival time, dose: 6.25 mg/kg/injection, schedule: Q01DX007 (ip), vehicle: saline",134 % of control
same,T/C,"T/C endpoint: mean survival time, dose: 6.25 mg/kg/injection, schedule: Q01DX009 (ip), vehicle: saline",142 % of control
same,T/C,"T/C endpoint: mean survival time, dose: 10.0 mg/kg/injection, schedule: Q01DX009 (ip), vehicle: saline",134 % of control
same,T/C,"T/C endpoint: mean survival time, dose: 12.5 mg/kg/injection, schedule: Q01DX007 (ip), vehicle: saline",142 and 143 % of control
same,T/C,"T/C endpoint: mean survival time, dose: 12.5 mg/kg/injection, schedule: Q01DX009 (ip), vehicle: saline",140 % of control
same,T/C,"T/C endpoint: mean survival time, dose: 12.5 mg/kg/injection, schedule: Q03DX003 (ip), vehicle: saline",129 % of control
same,T/C,"T/C endpoint: mean survival time, dose: 12.5 mg/kg/injection, schedule: Q04DX003 (ip), vehicle: saline",125 % of control
same,survivor count,"T/C endpoint: mean survival time, dose: 16.0 mg/kg/injection, schedule: Q03HX016 (ip), vehicle: saline",6 of 6
same,survivor count,"T/C endpoint: mean survival time, dose: 16.0 mg/kg/injection, schedule: Q03HX024 (ip), vehicle: saline",5 of 10 and 10 of 10
same,T/C,"T/C endpoint: mean survival time, dose: 20.0 mg/kg/injection, schedule: Q01DX009 (ip), vehicle: saline",146 % of control
same,T/C,"T/C endpoint: mean survival time, dose: 25.0 mg/kg/injection, schedule: Q01DX007 (ip), vehicle: saline",145 % of control
same,survivor count,[1],6 of 6
same,T/C,"T/C endpoint: mean survival time, dose: 25.0 mg/kg/injection, schedule: Q03DX003 (ip), vehicle: saline",141 % of control
same,T/C,"T/C endpoint: mean survival time, dose: 25.0 mg/kg/injection, schedule: Q04DX003 (ip), vehicle: saline",141 % of control
same,survivor count,"T/C endpoint: mean survival time, dose: 40.0 mg/kg/injection, schedule: Q01DX009 (ip), vehicle: saline",6 of 6
same,survivor count,[2],4 of 6
same,T/C,"T/C endpoint: mean survival time, dose: 50.0 mg/kg/injection, schedule: Q04DX003 (ip), vehicle: saline",144 % of control
COC12C(COC(C)=O)C3=C(C(=O)C(C)=C(N4CCCCC4)C3=O)N1CC1NC12 (stereo not drawn),T/C,"T/C endpoint: mean survival time, dose: 12.0 mg/kg/injection, schedule: Q01DX001 (ip), vehicle: distilled water + Tween-80",136 and 144 % of control
same,T/C,"T/C endpoint: mean survival time, dose: 24.0 mg/kg/injection, schedule: Q01DX001 (ip), vehicle: distilled water + Tween-80",134 and 138 % of control
same,survivor count,"T/C endpoint: mean survival time, dose: 48.0 mg/kg/injection, schedule: Q01DX001 (ip), vehicle: distilled water + Tween-80",2 of 6
CC(C)C(=O)[O][Sn]([CH2]c1ccccc1)([CH2]c1ccccc1)[CH2]c1ccccc1,survivor count,[3],6 of 6
N#C/C(=C\C1CCC(Cl)C(Cl)C1)C1CCC([N+](=O)[O-])CC1 (stereo not drawn),survivor count,[4],3 of 3
COc1cc2c(c(OC)c1OC)-c1ccc(SC)c(=O)cc1[C@@H](NC1OCC(O)C(O)C1O)CC2 (stereo partly drawn),T/C,"T/C endpoint: mean survival time, dose: 24.0 mg/kg/injection, schedule: Q01DX009 (ip), vehicle: other",125 % of control
same,T/C,"T/C endpoint: mean survival time, dose: 48.0 mg/kg/injection, schedule: Q01DX009 (ip), vehicle: other",135 % of control
same,T/C,"T/C endpoint: mean survival time, dose: 50.0 mg/kg/injection, schedule: Q01DX009 (ip), vehicle: other",133 % of control
same,T/C,"T/C endpoint: mean survival time, dose: 96.0 mg/kg/injection, schedule: Q01DX009 (ip), vehicle: other",127 % of control
same,survivor count,"T/C endpoint: mean survival time, dose: 200.0 mg/kg/injection, schedule: Q01DX009 (ip), vehicle: other",4 of 6
CCN(C)c1cc2c3c(c1)CCCN3CCC2,survivor count,"T/C endpoint: mean survival time, dose: 100.0 mg/kg/injection, schedule: Q01DX001 (ip), vehicle: saline",0 of 6
same,survivor count,[5],0 of 6
same,survivor count,[6],0 of 6
O=C(CC(CC(=O)C(c1ccccc1)c1ccccc1)c1ccccc1)C(c1ccccc1)c1ccccc1,survivor count,"T/C endpoint: mean survival time, dose: 50.0 mg/kg/injection, schedule: Q04DX002 (ip), vehicle: saline with Tween-80",3 of 3
same,survivor count,"T/C endpoint: mean survival time, dose: 100.0 mg/kg/injection, schedule: Q04DX003 (ip), vehicle: saline with Tween-80",6 of 6
CN(C)C(=O)N/C=C/NC(=O)N(C)C,survivor count,[4],1 of 3
same,survivor count,[7],0 of 3
same,survivor count,"T/C endpoint: mean survival time, dose: 400.0 mg/kg/injection, schedule: Q04DX002 (ip), vehicle: saline with Tween-80",0 of 3
CC(=O)OCCC/C(=C\c1ccc(Cl)c(Cl)c1)[N+](=O)[O-],survivor count,[5],2 of 6
same,survivor count,[6],0 of 6
O=C(NC(CSC(c1ccc(Cl)cc1)c1ccc(Cl)cc1)C(=O)O)OCc1ccccc1 (stereo not drawn),survivor count,"T/C endpoint: mean survival time, dose: 150.0 mg/kg/injection, schedule: Q01DX001 (ip), vehicle: saline",2 of 6
CC1(C)CCC2(C(=O)O)CCC3(C)C(=CCC4C5(C)CC(O)C(OC6OC(CO)C(O)C(O)C6O)C(C)(CO)C5C(O)CC43C)C2C1 (stereo not drawn),survivor count,[4],1 of 3
same,survivor count,[7],0 of 3
CC(C)(C)C1=CC(C(C)(C)C)CCC1=O (stereo not drawn),survivor count,"T/C endpoint: mean survival time, dose: 400.0 mg/kg/injection, schedule: Q01DX009 (ip), vehicle: acetone",2 of 6
CC(=O)Oc1cc(N=[N+]=[N-])c(OC(C)=O)cc1C,survivor count,"T/C endpoint: mean survival time, dose: 400.0 mg/kg/injection, schedule: Q01DX001 (ip), vehicle: saline with Tween-80",0 of 3
Nc1ccc2c(c1)CN1C(=O)c3ccccc3C1=N2,survivor count,"T/C endpoint: median survival time, dose: 200.0 mg/kg/injection, schedule: Q01DX009 (ip), vehicle: saline with Tween-80",5 of 6
CCCC(CCC)=NN=C(CCC)CCC,survivor count,"T/C endpoint: mean survival time, dose: 400.0 mg/kg/injection, schedule: Q04DX002 (ip), vehicle: saline + alcohol",3 of 3
COC1OC(CO)C(O)C(NC(=O)N(C)N=O)C1O (stereo not drawn),T/C,[1],128 % of control
same,T/C,[2],130 and 143 % of control
same,T/C,"T/C endpoint: mean survival time, dose: 100.0 mg/kg/injection, schedule: Q01DX009 (ip), vehicle: saline",142 % of control
same,T/C,"T/C endpoint: median survival time, dose: 25.0 mg/kg/injection, schedule: Q01DX009 (ip), vehicle: saline",139 % of control
same,T/C,"T/C endpoint: median survival time, dose: 50.0 mg/kg/injection, schedule: Q01DX009 (ip), vehicle: saline",126 [5 of 6 alive] and 149 % of control
same,T/C,"T/C endpoint: median survival time, dose: 144.0 mg/kg/injection, schedule: Q01DX005 (ip), vehicle: saline",140 % of control
same,T/C,"T/C endpoint: median survival time, dose: 666.66 mg/kg/injection, schedule: Q01DX005 (ip), vehicle: saline",145 % of control
same,survivor count,"T/C endpoint: median survival time, dose: 1111.11 mg/kg/injection, schedule: Q01DX005 (ip), vehicle: saline",4 of 6
CC1=CC(=O)C(C(C)C)=CC1=O,survivor count,[3],3 of 6
same,survivor count,"T/C endpoint: mean survival time, dose: 200.0 mg/kg/injection, schedule: Q04DX003 (ip), vehicle: saline with Tween-80",4 of 6
same,survivor count,"T/C endpoint: mean survival time, dose: 400.0 mg/kg/injection, schedule: Q04DX003 (ip), vehicle: saline with Tween-80",3 of 6

# Reference: PubChem BioAssay AID256 (DTP/NCI, 2004)
